The source of these data is publication PMC12052686, “NADK tetramer defective mutants affect lung cancer response to chemotherapy via controlling NADK activity” (Genes & Diseases, 2025).

Experiment [1] addresses NADK R45H mutant (human) (UniProt O95544). The experiment is described as follows: cross-linking; supernatant of sonicated transfected HEK293T cells in PBS, 0.2 mM BS3 on ice for 10 min, quenched with 50 mM Tris-HCl pH 8.0; immunoblotting.
The target in experiment [2] is NADK D314H mutant (human) (UniProt O95544). The experiment is described as above.
Experiment [3] deals with NADK C349S mutant (human) (UniProt O95544). The description is as above.
Experiment [4] deals with HA-NADK full-length (FL), wild type (human) (UniProt O95544). Briefly: SEC; lysates of transfected HEK293T cells with endogenous NADK knocked out, Superdex 200 Increase 10/300 GL, 0.5 mL/min; fractions analysed by immunoblotting. For orientation: SEC sorts molecules by how far they enter the pores of the column.
Experiment [5] shares this target. The experiment is described as follows: cross-linking; supernatant of sonicated transfected HEK293T cells in PBS, 0.2 mM BS3 on ice for 10 min, quenched with 50 mM Tris-HCl pH 8.0; immunoblotting. A general note: A western blot detects proteins with antibodies after separation by electrophoresis.
Experiment [6] deals with NADK Y327A mutant (human) (UniProt O95544). Described as above.

Results are given in words; binding and its absence hold for the method and conditions named. For part of these data: Binding seen in cells or lysates may run through a third protein. Some results given as binding are weak or reduced against the parent protein; the word gives no strength. For part of these data: Sequences can lack the tags named with a protein.

B1: NADK R45H mutant (enzyme, UniProt O95544 1-446)
chain: MEMEQEKMTMNKELSPDAAAYCCSACHGDETWSYNHPIRGRAKSHSLSASPALGSTKEFRRTRSLHGPCPVTTFGPKACVLQNPQTIMHIQDPASQRLTWNKSPKSVLVIKKMRDASLLQPFKELCTHLMEENMIVYVEKKVLEDPAIASDESFGAVKKKFCTFREDYDDISNQIDFIICLGGDGTLLYASSLFQGSVPPVMAFHLGSLGFLTPFSFENFQSQVTQVIEGNAAVVLRSRLKVRVVKELRGKKTAVHNGLGENGSQAAGLDMDVGKQAMQYQVLNEVVIDRGPSSYLSNVDVYLDGHLITTVQGDGVIVSTPTGSTAYAAAAGASMIHPNVPAIMITPICPHSLSFRPIVVPAGVELKIMLSPEARNTAWVSFDGRKRQEIRHGDSISITTSCYPLPSICVRDPVSDWFESLAQCLHWNVRKKQAHFEEEEEEEEEG
Regarding B1, in experiment [1], the binding entry is listed as “binds”.

B2: NADK D314H mutant (enzyme, UniProt O95544 1-446)
chain: MEMEQEKMTMNKELSPDAAAYCCSACHGDETWSYNHPIRGRAKSRSLSASPALGSTKEFRRTRSLHGPCPVTTFGPKACVLQNPQTIMHIQDPASQRLTWNKSPKSVLVIKKMRDASLLQPFKELCTHLMEENMIVYVEKKVLEDPAIASDESFGAVKKKFCTFREDYDDISNQIDFIICLGGDGTLLYASSLFQGSVPPVMAFHLGSLGFLTPFSFENFQSQVTQVIEGNAAVVLRSRLKVRVVKELRGKKTAVHNGLGENGSQAAGLDMDVGKQAMQYQVLNEVVIDRGPSSYLSNVDVYLDGHLITTVQGHGVIVSTPTGSTAYAAAAGASMIHPNVPAIMITPICPHSLSFRPIVVPAGVELKIMLSPEARNTAWVSFDGRKRQEIRHGDSISITTSCYPLPSICVRDPVSDWFESLAQCLHWNVRKKQAHFEEEEEEEEEG
Take B2: the binding result in experiment [2] is on record as “binds”.

B3: NADK C349S mutant (enzyme, UniProt O95544 1-446)
chain: MEMEQEKMTMNKELSPDAAAYCCSACHGDETWSYNHPIRGRAKSRSLSASPALGSTKEFRRTRSLHGPCPVTTFGPKACVLQNPQTIMHIQDPASQRLTWNKSPKSVLVIKKMRDASLLQPFKELCTHLMEENMIVYVEKKVLEDPAIASDESFGAVKKKFCTFREDYDDISNQIDFIICLGGDGTLLYASSLFQGSVPPVMAFHLGSLGFLTPFSFENFQSQVTQVIEGNAAVVLRSRLKVRVVKELRGKKTAVHNGLGENGSQAAGLDMDVGKQAMQYQVLNEVVIDRGPSSYLSNVDVYLDGHLITTVQGDGVIVSTPTGSTAYAAAAGASMIHPNVPAIMITPISPHSLSFRPIVVPAGVELKIMLSPEARNTAWVSFDGRKRQEIRHGDSISITTSCYPLPSICVRDPVSDWFESLAQCLHWNVRKKQAHFEEEEEEEEEG
With B3, in experiment [3], the binding entry was “binds”.

B4: HA-NADK full-length (FL), wild type (enzyme, UniProt O95544 1-446)
chain: MEMEQEKMTMNKELSPDAAAYCCSACHGDETWSYNHPIRGRAKSRSLSASPALGSTKEFRRTRSLHGPCPVTTFGPKACVLQNPQTIMHIQDPASQRLTWNKSPKSVLVIKKMRDASLLQPFKELCTHLMEENMIVYVEKKVLEDPAIASDESFGAVKKKFCTFREDYDDISNQIDFIICLGGDGTLLYASSLFQGSVPPVMAFHLGSLGFLTPFSFENFQSQVTQVIEGNAAVVLRSRLKVRVVKELRGKKTAVHNGLGENGSQAAGLDMDVGKQAMQYQVLNEVVIDRGPSSYLSNVDVYLDGHLITTVQGDGVIVSTPTGSTAYAAAAGASMIHPNVPAIMITPICPHSLSFRPIVVPAGVELKIMLSPEARNTAWVSFDGRKRQEIRHGDSISITTSCYPLPSICVRDPVSDWFESLAQCLHWNVRKKQAHFEEEEEEEEEG
For the molecule B4, the binding result in experiment [4] and in experiment [5] was “binds” each time.

B5: NADK Y327A mutant (enzyme, UniProt O95544 1-446)
chain: MEMEQEKMTMNKELSPDAAAYCCSACHGDETWSYNHPIRGRAKSRSLSASPALGSTKEFRRTRSLHGPCPVTTFGPKACVLQNPQTIMHIQDPASQRLTWNKSPKSVLVIKKMRDASLLQPFKELCTHLMEENMIVYVEKKVLEDPAIASDESFGAVKKKFCTFREDYDDISNQIDFIICLGGDGTLLYASSLFQGSVPPVMAFHLGSLGFLTPFSFENFQSQVTQVIEGNAAVVLRSRLKVRVVKELRGKKTAVHNGLGENGSQAAGLDMDVGKQAMQYQVLNEVVIDRGPSSYLSNVDVYLDGHLITTVQGDGVIVSTPTGSTAAAAAAGASMIHPNVPAIMITPICPHSLSFRPIVVPAGVELKIMLSPEARNTAWVSFDGRKRQEIRHGDSISITTSCYPLPSICVRDPVSDWFESLAQCLHWNVRKKQAHFEEEEEEEEEG
On to B5, for which the binding entry in experiment [6] is on record as “binds”.
